Laboratory results reported in patent US20020159972A1 (PENN STATE RESEARCH FOUNDATION, published 2002).
These are yes or no findings as the source states them, for the method shown. Some entries that bind do so weakly or less than the wild type.

Sequences of proteins named here, by UniProt entry; tags and fusion partners are left off. A change or cut given only in a name is not applied to a line headed by its entry.
UniProt P35225: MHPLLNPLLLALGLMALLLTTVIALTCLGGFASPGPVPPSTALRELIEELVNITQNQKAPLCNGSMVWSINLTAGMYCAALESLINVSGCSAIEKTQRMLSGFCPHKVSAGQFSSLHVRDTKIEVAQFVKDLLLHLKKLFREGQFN

Columns and labels:
[1] = molecular target: T1, restricted (IL4 independent) hIL13 receptor (human) (UniProt Q14627); assay: autoradiography on GBM tissue sections
T1 sequence (looked up): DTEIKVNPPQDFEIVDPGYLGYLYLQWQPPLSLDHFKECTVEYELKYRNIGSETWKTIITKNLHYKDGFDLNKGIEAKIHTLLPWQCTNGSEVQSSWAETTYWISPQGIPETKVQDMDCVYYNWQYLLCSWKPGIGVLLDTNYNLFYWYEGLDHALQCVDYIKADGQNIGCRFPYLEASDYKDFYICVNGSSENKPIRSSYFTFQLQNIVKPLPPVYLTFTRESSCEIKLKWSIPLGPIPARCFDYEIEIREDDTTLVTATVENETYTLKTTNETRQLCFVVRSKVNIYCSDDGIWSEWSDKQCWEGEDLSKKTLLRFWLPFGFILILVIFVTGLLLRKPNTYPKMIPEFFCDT

[2] = molecular target: T1, restricted (IL4 independent) hIL13 receptor (human); assay: autoradiography on GBM tissue sections; unlabeled competitor against ^125I-hIL13.E13Y

native hIL13 (mature human interleukin 13) (from UniProt P35225 33-146) (ligand)
binding [1]: binds | binding [2]: binds

^125I-hIL13.E13Y (from UniProt P35225 33-146) (ligand)
binding [1]: binds

hIL13.E13Y (from UniProt P35225 33-146) (ligand)
binding [2]: binds
